Record: PubChem BioAssay AID1259254 (NCATS, 2017)
Purpose: 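Gene knock-downs that lead to re-replication, shown by excess G2 DNA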 (primary screen). Cells: human HCT116 colorectal cancer cells. Reagents: single siRNA against human genes. Duration: 3 days. Detection: 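Imaged Hoechst DNA stain sorts each cell into a cycle phase by DNA amount; per plate, G2 fraction set to 0% for non-targeting and 100% for GMNN siRNA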. Direction: G2 robust z-score and G2 cells, % of GMNN control: higher = more G2 cells, more excess DNA replication; raw share of cells in G2: higher = larger share of cells with G2 DNA content. Call rule: 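An siRNA counts as active if its G2 robust z-score lies at least 5 MADs above the screen median; here such calls match roughly 38% of GMNN control or more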.
The deposit covers about 59,000 reagents; below is an unselected part. Over the whole deposit, about 1,550 (2.6%) are marked active. 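G2 share is only a proxy for re-replication; each gene was hit by three separate siRNAs, and active genes were retested.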 The raw values are shown without normalisation. A number with no mark means an inactive call. Reagents against one gene are numbered here. Reagent sequences are not shown. Not stated in the record: the amount of reagent.

no.	Gene	siRNA no.	G2 robust z-score	G2 cells, % of GMNN control	raw share of cells in G2 (%)
1	UBL5 (GeneID 59286)	1	2.02	17.2	10.4
2	UBL5 (GeneID 59286)	2	-1.22	-5.64	2.18
3	UBL5 (GeneID 59286)	3	-0.545	-0.865	5.29
4	LSMEM1 (GeneID 286006)	1	2.48	20.4	11.1
5	LSMEM1 (GeneID 286006)	2	-0.768	-2.44	2.1
6	LSMEM1 (GeneID 286006)	3	-0.329	0.653	3.47
7	KEL (GeneID 3792)	1	-1.32	-6.32	3.35
8	KEL (GeneID 3792)	2	1.05	10.4	8.57
9	KEL (GeneID 3792)	3	0.403	5.8	6.07
10	LINC00636 (GeneID 285205)	1	2.53	20.8	11.2
11	LINC00636 (GeneID 285205)	2	-0.367	0.388	3.19
12	LINC00636 (GeneID 285205)	3	1.4	12.8	7.16
13	GMNC (GeneID 647309)	1	-0.186	1.66	4.4
14	GMNC (GeneID 647309)	2	-0.2	1.56	3.8
15	GMNC (GeneID 647309)	3	2.65	21.6	9.91
16	MPHOSPH6 (GeneID 10200)	1	1.7	14.9	12.1
17	MPHOSPH6 (GeneID 10200)	2	1.31	12.2	9.04
18	MPHOSPH6 (GeneID 10200)	3	2.99	24	12.1
19	NDUFS2 (GeneID 4720)	1	2.31	19.2	12.8
20	NDUFS2 (GeneID 4720)	2	-0.595	-1.22	2.79
21	NDUFS2 (GeneID 4720)	3	-0.0202	2.83	6.59
22	SLC25A10 (GeneID 1468)	1	2.46	20.2	12.2
23	SLC25A10 (GeneID 1468)	2	-0.551	-0.912	4.66
24	SLC25A10 (GeneID 1468)	3	-0.604	-1.28	3.66
25	ZC3HC1 (GeneID 51530)	1	-0.875	-3.19	4.6
26	ZC3HC1 (GeneID 51530)	2	-1.01	-4.12	3.69
27	ZC3HC1 (GeneID 51530)	3	0.311	5.16	5.33
28	PHKG1 (GeneID 5260)	1	-0.732	-2.18	4.89
29	PHKG1 (GeneID 5260)	2	-0.44	-0.125	3.98
30	PHKG1 (GeneID 5260)	3	-0.916	-3.48	4.24
31	OSR2 (GeneID 116039)	1	-0.802	-2.67	4.43
32	OSR2 (GeneID 116039)	2	3.28	26	14.3
33	OSR2 (GeneID 116039)	3	0.0391	3.24	6.36
34	BLZF1 (GeneID 8548)	1	1.79	15.6	12
35	BLZF1 (GeneID 8548)	2	2.52	20.7	12.1
36	BLZF1 (GeneID 8548)	3	2.82	22.8	11.4
37	ZNF446 (GeneID 55663)	1	4.25	32.9	14.4
38	ZNF446 (GeneID 55663)	2	0.392	5.72	8.5
39	ZNF446 (GeneID 55663)	3	0.198	4.36	5
40	GPR35 (GeneID 2859)	1	2.51	20.6	13.2
41	GPR35 (GeneID 2859)	2	-0.332	0.632	4.74
42	GPR35 (GeneID 2859)	3	2.91	23.5	10.5
43	ATXN2 (GeneID 6311)	1	0.188	4.29	5.57
44	ATXN2 (GeneID 6311)	2	-0.258	1.15	5.12
45	ATXN2 (GeneID 6311)	3	5.99 (active)	45.1	20.5
46	ZKSCAN3 (GeneID 80317)	1	0.261	4.8	5.93
47	ZKSCAN3 (GeneID 80317)	2	-0.442	-0.142	4.73
48	ZKSCAN3 (GeneID 80317)	3	-0.545	-0.868	5.07

An excerpt from above, showing only “G2 cells, % of GMNN control”:
PHKG1 (GeneID 5260) #1	-2.18
PHKG1 (GeneID 5260) #2	-0.125
PHKG1 (GeneID 5260) #3	-3.48
OSR2 (GeneID 116039) #1	-2.67
